Experimental data from paper PMC4175335, “Thiosulfate Transfer Mediated by DsrE/TusA Homologs from Acidothermophilic Sulfur-oxidizing Archaeon Metallosphaera cuprina*” (The Journal of Biological Chemistry, 2014).
No constants are given. Whether binding was seen depends on the method and setting.

Protein sequences, listed by entry. Tags and fused reporters are not part of them. Lines headed by an entry give the natural chain unless they say otherwise; changes in a name come on top.
UniProt F4G1H3: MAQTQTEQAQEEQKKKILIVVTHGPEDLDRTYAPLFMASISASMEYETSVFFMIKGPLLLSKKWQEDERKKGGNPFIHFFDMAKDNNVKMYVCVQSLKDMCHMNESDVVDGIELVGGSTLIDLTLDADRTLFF
UniProt F4G1H4: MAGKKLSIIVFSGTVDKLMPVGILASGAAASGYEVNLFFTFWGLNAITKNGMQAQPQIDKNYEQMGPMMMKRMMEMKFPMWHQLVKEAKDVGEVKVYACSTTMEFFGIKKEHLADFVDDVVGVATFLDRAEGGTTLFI

Biological target: DsrE3A (Mcup_0681) of Metallosphaera cuprina Ar-4, N-terminally His-tagged (Metallosphaera cuprina Ar-4) (UniProt F4G1H3)
Assay: SEC; proteins incubated together on ice for at least 1 h; HiLoad 16/60 Superdex 200; 50 mM Tris-HCl (pH 7.5), 150 mM NaCl; 1.0 ml/min; fractions checked by SDS-PAGE; both purified

- binding: no binding
Substance: DsrE2B (Mcup_0682) of Metallosphaera cuprina Ar-4, N-terminally His-tagged (from UniProt F4G1H4)
